# In all, about 580,000 compounds went through this assay and about 6,100 (1.1%) were called active. The inconclusive results got no clear call from the source; some entries with a clear call stand among them for comparison. Calls follow the shape of the dose curve; as a rule, active = well fitted inhibition curve with a large enough effect; inconclusive = small, poorly fitted or top-dose-only effect, or another doubt; inactive = no such curve, though single readings can be large or run the other way. Where the call is inconclusive, the potency comes from a doubtful curve fit.
# By UniProt entry, the sequences of proteins in these tests, tags left out. Where a name states a change or a piece, a line headed by the entry shows the natural chain unless it says otherwise.
# UniProt P18054: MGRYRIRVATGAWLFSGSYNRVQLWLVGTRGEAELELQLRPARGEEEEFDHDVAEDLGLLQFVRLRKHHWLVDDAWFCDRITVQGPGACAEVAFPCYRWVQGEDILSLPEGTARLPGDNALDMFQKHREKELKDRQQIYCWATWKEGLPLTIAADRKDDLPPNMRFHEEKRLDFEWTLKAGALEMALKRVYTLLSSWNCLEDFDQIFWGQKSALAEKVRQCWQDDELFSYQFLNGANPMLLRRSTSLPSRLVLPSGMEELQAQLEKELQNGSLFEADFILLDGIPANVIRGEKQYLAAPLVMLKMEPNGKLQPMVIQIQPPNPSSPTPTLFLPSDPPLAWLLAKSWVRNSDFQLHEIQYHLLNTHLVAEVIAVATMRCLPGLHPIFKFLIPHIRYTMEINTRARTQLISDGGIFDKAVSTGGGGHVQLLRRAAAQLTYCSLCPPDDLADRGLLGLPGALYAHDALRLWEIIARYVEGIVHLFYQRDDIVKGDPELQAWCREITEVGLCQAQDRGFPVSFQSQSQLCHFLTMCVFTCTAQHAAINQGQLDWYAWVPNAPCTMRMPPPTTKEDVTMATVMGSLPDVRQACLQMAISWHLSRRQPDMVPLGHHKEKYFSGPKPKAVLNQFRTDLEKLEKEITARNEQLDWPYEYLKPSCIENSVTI
# Target: Polyunsaturated fatty acid lipoxygenase ALOX12 (Homo sapiens) (UniProt P18054)
# Experiment: Primary qHTS assay for inhibitors of human arachidonate 12S-lipoxygenase (ALOX12): Round 2
# Settings: purified 12hLO, xylenol orange hydroperoxide absorbance; activity change, negative = inhibition: at 108 µM (top of the series) unless noted
# Procedure, shortened: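 Purified human 12hLO (150 nM final) in 25 mM Hepes, 0.01% Triton X-100, pH 7.0 was preincubated 15 min at room temperature with compound. Then 40 uM arachidonic acid was added, 30 min. Hydroperoxide was read by Fe-XO absorbance ratio 573/405 nm.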
# % is scaled to controls: 0 for no effect and ±100 for the full control effect; potency is read from the fitted curve at half-maximal effect.
SMILES,"activity change, negative = inhibition",Potency
CCCN1C(=O)Cc2cc(C(=O)NC(C)c3ccc(OCC)cc3)ccc21 (stereo unspecified),inactive: 48%,
COc1ccc(Cc2nnc(NC(=O)Cn3cnc4c3c(=O)n(C)c(=O)n4C)s2)cc1OC,,"inconclusive: 112 µM [inhibitor, single point]"
Cc1cccc(CN2CCc3c(n(Cc4cccnc4)n(-c4ccccc4)c3=O)C2)n1,,"inconclusive: 31.6 µM [inhibitor, partial curve, poor fit]"
CCc1ccc([S+](=O)([O-])c2nnn3c2nc(NCc2ccncc2)c2ccccc23)cc1,inactive: -0.694% [at 6.33 µM],
COc1ccc(S(=O)(=O)N2CCN(c3ccc4nnc(-c5ccc(F)cc5)n4n3)CC2)cc1,,"inconclusive: 89.1 µM [inhibitor, partial curve, poor fit]"
O=C1NCN(Cc2ccc(Cl)cc2)C12CCN(Cc1cccc(C(F)(F)F)c1)CC2,,"inconclusive: 22.4 µM [inhibitor, full curve]"
Cc1nnc(SCc2cc(=O)n3[nH]cnc3n2)s1,,"inconclusive: 4.47 µM [inhibitor, full curve, poor fit]"
COc1ccccc1OCC(=O)NCCSCc1ccccc1Cl,inactive: -7.8%,
OC1CNc2c(ccc3ccccc23)C1 (stereo unspecified),,"inconclusive: 31.6 µM [inhibitor, partial curve, poor fit]"
CC(C)CCn1c(SCC(N)=O)nc2c1c(=O)[nH]c(=O)n2C,inactive: -19.5%,
CC1CCN(S(=O)(=O)c2ccc3c(ccn3CCC(=O)NCc3ccccc3F)c2)CC1,,"inconclusive: 28.2 µM [inhibitor, single point]"
Cc1nc(C(=O)Nc2cc(F)cc(Cl)c2)sc1C1(C)CC(c2ccccc2)=NO1 (stereo unspecified),,"inconclusive: 44.7 µM [inhibitor, full curve, poor fit]"
O=C(Nc1cc(F)cc(F)c1)c1n[nH]c(=O)c2ccccc12,,"inconclusive: 141 µM [inhibitor, single point]"
COc1ccc(C(C(=O)NC(C)(C)C)n2c(=O)c(-c3ccco3)nc3ccccc32)cc1 (stereo unspecified),,active: 25.1 µM
Cc1cccc(-n2ncc3c(Nc4ccc(C)c(Cl)c4)ncnc32)c1,,"inconclusive: 63.1 µM [inhibitor, partial curve, poor fit]"
Cc1ccc(C2=NO[C@@](CC(=O)O)(C(=O)Nc3ccc4c(c3)OCCO4)C2)cc1,,"inconclusive: 44.7 µM [inhibitor, partial curve]"
CCOC(=O)c1sc(=S)n(-c2ccccc2)c1SC,inactive: -3.75%,
Cc1ccc(C)c(Cn2c(=O)n(C(C)C)c(=O)c3oc4ccccc4c32)c1,inactive: -9.63%,
COc1ccc(CCC(=O)Nc2cccc(S(=O)(=O)N3CCCCCC3)c2)cc1OC,inactive: 2.99%,
CCC(=O)N(C)/C=C1\Sc2ccccc2C1=O,,"inconclusive: 31.6 µM [inhibitor, single point]"
Nn1c(SC(C(=O)N2CCOCC2)c2ccccc2)nnc1-c1ccccc1F (stereo unspecified),,"inconclusive: 100 µM [inhibitor, single point]"
COc1cccc(-n2c(CNC(=O)OC(C)(C)C)n[nH]c2=S)c1,,"inconclusive: 35.5 µM [inhibitor, partial curve, poor fit]"
O=C1/C(=C/c2ccc3ccccc3c2)Cc2ccccc21,inactive: -41.4%,
Nc1nc(Cl)ccc1[N+](=O)[O-],,"inconclusive: 100 µM [inhibitor, single point]"

# Of the compounds above, these contain a Cl atom.
SMILES,"activity change, negative = inhibition",Potency
O=C1NCN(Cc2ccc(Cl)cc2)C12CCN(Cc1cccc(C(F)(F)F)c1)CC2,,"inconclusive: 22.4 µM [inhibitor, full curve]"
COc1ccccc1OCC(=O)NCCSCc1ccccc1Cl,inactive: -7.8%,
Cc1nc(C(=O)Nc2cc(F)cc(Cl)c2)sc1C1(C)CC(c2ccccc2)=NO1 (stereo unspecified),,"inconclusive: 44.7 µM [inhibitor, full curve, poor fit]"
Cc1cccc(-n2ncc3c(Nc4ccc(C)c(Cl)c4)ncnc32)c1,,"inconclusive: 63.1 µM [inhibitor, partial curve, poor fit]"
Nc1nc(Cl)ccc1[N+](=O)[O-],,"inconclusive: 100 µM [inhibitor, single point]"

# Further records follow:

SMILES,"activity change, negative = inhibition",Potency
COC(=O)c1cccc(NC(=O)c2cccc([N+](=O)[O-])c2)c1,inactive: 99.9%,
Cc1ccccc1Cn1cc(NC(=O)c2noc3c2CC(C(C)(C)C)CC3)cn1 (stereo unspecified),inactive: 15.3%,
Cc1ccccc1NC(=O)C1C(=O)Nc2ccccc2C(=O)N1Cc1ccccc1 (stereo unspecified),,"inconclusive: 158 µM [inhibitor, single point]"
CCCc1nc2ccc(C)cn2c1Cc1ccc(OC)cc1C,,"inconclusive: 50.1 µM [inhibitor, partial curve, poor fit]"
Cc1ccccc1NC(=O)COc1ncnc2ccc(Br)cc12,,"inconclusive: 112 µM [inhibitor, single point]"
CCOc1ccc(-c2cccc(NC(=O)c3ccc(Br)o3)c2)nn1,,"inconclusive: 56.2 µM [inhibitor, partial curve, poor fit]"
CC1CC(C)CN(CCOc2ccccc2-c2ccccc2)C1 (stereo unspecified),,"inconclusive: 31.6 µM [inhibitor, partial curve, poor fit]"
Cc1ccccc1OCC(=O)Nc1cccc(C(=O)OCc2cc(=O)n3c(C)csc3n2)c1,,"inconclusive: 50.1 µM [inhibitor, partial curve, poor fit]"
C/C=C/C=C(\NC(=O)c1cccc(C)c1)C(=O)O,,"inconclusive: 3.98 µM [inhibitor, full curve, poor fit]"
CNC(=S)N(Cc1ccc(Cl)cc1)Cc1cccs1,inactive: 59.3%,
Cc1nnc(N=c2ssnc2Cl)o1,,active: 3.16 µM
Cc1noc(C)c1CSCC(=O)Nc1ccc(S(C)(=O)=O)cc1,inactive: 259%,
O=C(CCN1CCN(c2cnccn2)CC1)Nc1ccccc1Cl,inactive: 15.8%,
O=C(CC1COc2ccccc2O1)NCCc1ccccc1 (stereo unspecified),,"inconclusive: 35.5 µM [inhibitor, partial curve, poor fit]"
CCOc1ccc(-c2c(C)nn3c(C)c(C(=O)NCCc4ccc(Cl)cc4)cnc23)cc1OCC,inactive: -21.8%,
O=C(Cn1c(=O)n(-c2ccc(Cl)cc2)c(=O)c2sc3ccccc3c21)NC1CCCC1,inactive: -19.2%,
COc1ccc(C(=O)N2CCCC(C(=O)Nc3cccc(C#N)c3)C2)c2ccccc12 (stereo unspecified),inactive: 9.82%,
CC(=O)NC1(C)CCN(Cc2ccc(-c3ccc(N4CCOCC4)cc3)cc2)C1 (stereo unspecified),,"inconclusive: 70.8 µM [inhibitor, partial curve]"
COc1cc(OC)cc(-c2c(C#Cc3ccsc3)c3cc(-c4ccc(OC)c(OC)c4)ccc3n2C)c1,,"inconclusive: 79.4 µM [inhibitor, single point]"
CC(C)C(=O)Nc1cccc(COc2ccc(CN(CCc3ccccc3)C(=O)OC(C)(C)C)cc2)c1,,"inconclusive: 89.1 µM [inhibitor, single point]"
N#CCCN(C(=O)CSc1nc2ccccc2c(=O)[nH]1)c1ccc(F)cc1,,"inconclusive: 126 µM [inhibitor, single point]"
CCOP(=O)(OCC)c1nc(-c2ccccc2)oc1NCc1ccco1,inactive: 17.3%,
Cc1ccnc2nc(C(=O)Nc3nccs3)nn12,,"inconclusive: 0.708 µM [inhibitor, partial curve, poor fit]"
C=CCN1CCc2c(cc(O)c(O)c2Cl)C(c2cccc(C)c2)C1 (stereo unspecified),,"inconclusive: 6.31 µM [inhibitor, full curve, poor fit]"

SMILES,"activity change, negative = inhibition",Potency
CCc1nc2cccnc2n1-c1ccc(CC(=O)Nc2cccc(C)c2C)cc1,inactive: -10.8%,
CCc1cc(C(=O)Cc2ccc(F)cc2)c(O)cc1O,,"inconclusive: 112 µM [inhibitor, partial curve, poor fit]"
Cc1cccc(-n2nc(-c3c(C)nc4scc(CC(=O)NCCc5ccccc5)n4c3=O)cc2C)c1,inactive: 2.4%,
CCOC(=O)c1ccc(NC(=O)c2ncoc2-c2cccc(OC)c2)cc1,,"inconclusive: 25.1 µM [inhibitor, partial curve, poor fit]"
O=C(NNC(=S)NCc1ccccc1)c1ccc2ccccc2c1,,"inconclusive: 50.1 µM [inhibitor, partial curve, poor fit]"
Cc1cc(-c2nnc(CSc3nc4ccc(Cl)cc4[nH]3)o2)c(C)o1,,"inconclusive: 39.8 µM [inhibitor, partial curve, poor fit]"
N=C(N)SCc1ccc(O)c([N+](=O)[O-])c1,,"inconclusive: 39.8 µM [inhibitor, partial curve, poor fit]"
Brc1ccccc1OCCCN1CCCC1,,"inconclusive: 0.631 µM [inhibitor, full curve, poor fit]"
CCOC(=O)C1C(=O)CC(C)(O)C(C(=O)OCC)C1c1ccc(Br)o1 (stereo unspecified),,"inconclusive: 35.5 µM [inhibitor, single point]"
O=C(Nc1ccc(Br)cc1)c1cccc(N2C(=O)CCC2=O)c1,inactive: 1.09%,
C[C@H](CO)N1C[C@H](C)[C@@H](CN(C)C(=O)Nc2ccc(C(F)(F)F)cc2)Oc2c(cccc2N(C)C)C1=O,inactive: -2.06%,
Cc1cc(NC(=O)c2noc3c2CCCC3)nn1Cc1ccc(Cl)cc1,inactive: -5.37%,
COc1ccc(-n2nnnc2C(C)(C)Nc2ccc(C)cc2)cc1OC,inactive: -55.6%,
c1ccc(-n2nnnc2CNc2cccc3c2CCCC3)cc1,,"inconclusive: 39.8 µM [inhibitor, partial curve]"
COCC(=O)N1CCC(C(=O)N2CCC2c2ccccc2)CC1 (stereo unspecified),inactive: 69%,
CCc1ccc(-c2cc3c(=O)[nH]nc(SCC(=O)NC(C)(C)C)n3n2)cc1,inactive: 4.75%,
COc1ccccc1NC(=O)c1nc[nH]c1C(=O)Nc1ccccc1OC,inactive: -9.75%,
Nc1ncnc(N)c1N=Nc1ccccc1,inactive: -6.93%,
C=CCN1C(c2ccccc2)=CS/C1=C(/C#N)c1nnc(N2CCOCC2)n1-c1ccccc1,inactive: -14.3%,
Cc1ccc(-n2nc3c(=O)n(CC(=O)NCCCc4ccccc4)nc(C)c3c2C)cc1,inactive: 3.81%,
COc1ccc(C(=S)N2CCN(c3ccccc3Cl)CC2)cc1OC,,"inconclusive: 44.7 µM [inhibitor, partial curve]"
Cc1ccccc1NS(=O)(=O)c1ccc2[nH]c(=O)[nH]c2c1,,"inconclusive: 56.2 µM [inhibitor, partial curve, poor fit]"
Cc1ccc(S(=O)(=O)N2[C@@H](c3ccccc3F)C(C(=O)O)=CC[C@H]2c2ccc(Cl)cc2)cc1,,"inconclusive: 20 µM [inhibitor, partial curve]"
